Source: the supplement of paper PMC6078165
The reference is the same well before dosing, and untreated signal decays as well.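 Fibroblast labels denote human fibroblasts, mainly primary ones from uterus (C12385, HUF), lung (H6013), bone (Hs27A), adrenal (HADF) and skin (WS1), plus mammary HMF and breast cancer-associated Hs343T. Cancer cells are basal-like or mesenchymal-like triple-negative breast cancer lines. A hit is a response shift exceeding 3x replicate standard deviation. The tissue of the other fibroblasts is not given here.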

System: Hs578T
Experiment: relative JC-1 red fluorescence (viability) vs pre-drug, coculture with fibroblast (fraction); higher = more viable cancer cells
Procedure: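 JC-1 labelled TNBC cells cocultured 1:1 (1,500 cells each) with CellTrace Violet stained primary or stromal fibroblasts in 384-well plates in FluoroBrite medium, treated with one of 42 anticancer drugs at 0.1, 1, 10 or 100 uM. JC-1 red fluorescence (mitochondrial integrity in cancer cells only) was read by plate reader every 8 h for 72 h. Values are normalised to each well's pre-drug value. The stock of one drug was tenfold lower, so its dose labels may be too high.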

CC(C)C[C@H](NC(=O)[C@@H](COC(C)(C)C)NC(=O)[C@H](Cc1ccc(O)cc1)NC(=O)[C@H](CO)NC(=O)[C@H](Cc1c[nH]c2ccccc12)NC(=O)[C@H](Cc1cnc[nH]1)NC(=O)[C@@H]1CCC(=O)N1)C(=O)N[C@@H](CCCNC(=N)N)C(=O)N1CCC[C@H]1C(=O)NNC(N)=O [Goserelin]
relative JC-1 red fluorescence
Conditions | 8 h | 16 h | 24 h | 32 h | 40 h | 48 h | 56 h | 64 h | 72 h
10 µM | 0.90939 | 0.7902 | 0.72741 | 0.6821 | 0.614 | 0.573 | 0.539 | 0.501 | 0.481
100 µM | 0.916 | 0.8207 | 0.784 | 0.752 | 0.696 | 0.654 | 0.632 | 0.59 | 0.574

relative JC-1 red fluorescence
Conditions | 8 h | 16 h | 24 h | 32 h | 40 h | 48 h | 56 h | 64 h | 72 h
10 µM, coculture fibroblast: C12385 | 0.8429 | 0.704 | 0.665 | 0.582 | 0.521 | 0.478 | 0.443 | 0.422 | 0.409
10 µM, coculture fibroblast: H6013 | 0.866 | 0.788 | 0.755 | 0.742 | 0.718 | 0.716 | 0.706 | 0.694 | 0.67
10 µM, coculture fibroblast: H6019 | 0.786 | 0.721 | 0.677 | 0.589 | 0.546 | 0.513 | 0.477 | 0.452 | 0.417
10 µM, coculture fibroblast: H6076 | 0.8932 | 0.8167 | 0.764 | 0.7442 | 0.7018 | 0.705 | 0.678 | 0.672 | 0.667
10 µM, coculture fibroblast: H6231 | 0.918 | 0.795 | 0.719 | 0.675 | 0.608 | 0.585 | 0.535 | 0.507 | 0.477
10 µM, coculture fibroblast: HADF | 0.891 | 0.7888 | 0.712 | 0.653 | 0.61 | 0.573 | 0.542 | 0.527 | 0.494
10 µM, coculture fibroblast: HCFa | 0.862 | 0.767 | 0.69 | 0.627 | 0.558 | 0.527 | 0.492 | 0.48 | 0.455
10 µM, coculture fibroblast: HCPF | 0.938 | 0.846 | 0.802 | 0.758 | 0.703 | 0.672 | 0.643 | 0.604 | 0.558
10 µM, coculture fibroblast: HHSteC | 0.921 | 0.824 | 0.787 | 0.752 | 0.69089 | 0.662 | 0.629 | 0.608 | 0.578
10 µM, coculture fibroblast: HMF | 0.885 | 0.798 | 0.7183 | 0.684 | 0.617 | 0.588 | 0.55 | 0.525 | 0.504
10 µM, coculture fibroblast: HPFa | 0.924 | 0.831 | 0.772 | 0.716 | 0.666 | 0.631 | 0.585 | 0.56 | 0.513
10 µM, coculture fibroblast: HUF | 0.877 | 0.729 | 0.705 | 0.6035 | 0.5402 | 0.5101 | 0.4767 | 0.4668 | 0.454
10 µM, coculture fibroblast: Hs27A | 0.9032 | 0.825 | 0.766 | 0.709 | 0.655 | 0.634 | 0.596 | 0.578 | 0.525
10 µM, coculture fibroblast: Hs343T | 0.923 | 0.82 | 0.74 | 0.709 | 0.65 | 0.612 | 0.56 | 0.524 | 0.504
10 µM, coculture fibroblast: WS1 | 0.839 | 0.737 | 0.654 | 0.561 | 0.487 | 0.451 | 0.415 | 0.391 | 0.378
100 µM, coculture fibroblast: C12385 | 0.8469 | 0.7439 | 0.758 | 0.673 | 0.624 | 0.594 | 0.567 | 0.556 | 0.545
100 µM, coculture fibroblast: H6013 | 0.928 | 0.858 | 0.844 | 0.829 | 0.799 | 0.789 | 0.769 | 0.757 | 0.73
100 µM, coculture fibroblast: H6019 | 0.8043 | 0.712 | 0.6702 | 0.576 | 0.528 | 0.4964 | 0.465 | 0.436 | 0.407
100 µM, coculture fibroblast: H6076 | 0.904 | 0.813 | 0.809 | 0.8023 | 0.7793 | 0.787 | 0.78273 | 0.789 | 0.801
100 µM, coculture fibroblast: H6231 | 0.902 | 0.805 | 0.768 | 0.742 | 0.679 | 0.655 | 0.623 | 0.603 | 0.592
100 µM, coculture fibroblast: HADF | 0.935 | 0.869 | 0.818 | 0.789 | 0.748 | 0.716 | 0.674 | 0.657 | 0.618
100 µM, coculture fibroblast: HCFa | 0.879 | 0.806 | 0.773 | 0.724 | 0.669 | 0.646 | 0.617 | 0.604 | 0.565
100 µM, coculture fibroblast: HCPF | 0.906 | 0.8 | 0.757 | 0.734 | 0.686 | 0.668 | 0.658 | 0.61 | 0.5912
100 µM, coculture fibroblast: HHSteC | 0.93 | 0.826 | 0.769 | 0.725 | 0.676 | 0.649 | 0.62 | 0.596 | 0.56
100 µM, coculture fibroblast: HMF | 0.9201 | 0.811 | 0.773 | 0.744 | 0.692 | 0.655 | 0.616 | 0.587 | 0.569
100 µM, coculture fibroblast: HPFa | 0.912 | 0.837 | 0.777 | 0.719 | 0.67 | 0.637 | 0.591 | 0.565 | 0.515
100 µM, coculture fibroblast: HUF | 0.8885 | 0.76862 | 0.739 | 0.621 | 0.563 | 0.523 | 0.486 | 0.471 | 0.459
100 µM, coculture fibroblast: Hs27A | 0.8918 | 0.842 | 0.798 | 0.759 | 0.701 | 0.676 | 0.635 | 0.616 | 0.564
100 µM, coculture fibroblast: Hs343T | 0.95 | 0.8452 | 0.793 | 0.776 | 0.704 | 0.668 | 0.622 | 0.591 | 0.57
100 µM, coculture fibroblast: WS1 | 0.812 | 0.746 | 0.6672 | 0.565 | 0.505 | 0.477 | 0.441 | 0.424 | 0.407
